{"source": "patent US20240197766A1", "about": "“TREATMENT OF RNA VIRUS INFECTION WITH A CYTIDINE” (The Cleveland Clinic Foundation, priority 2021, published 2024)", "origin": "cited, not measured here", "test_system": "SARS2", "conditions": "clinically relevant concentrations, data from Xiong et al.; cited from earlier work", "note": "For at least one compound, name, drawing or mass did not settle the structure."}
{"smiles": "C/C(O)=C(\\C#N)C(=O)Nc1ccc(C(F)(F)F)cc1", "note": "[Teriflunomide, teriflunomide]", "values": [{"measurement": "SARS2 replication", "result": "potently inhibits"}]}
